Data published in article PMC11449124.
These are yes or no findings as the source states them, for the method shown. In cells and extracts the contact can be indirect. Some binding calls cover weakened binding; strength is not graded here.

The chains behind the UniProt entries cited, without tags or fusion partners. Where a name states a change or a piece, a line headed by the entry shows the natural chain unless it says otherwise.
UniProt P84077: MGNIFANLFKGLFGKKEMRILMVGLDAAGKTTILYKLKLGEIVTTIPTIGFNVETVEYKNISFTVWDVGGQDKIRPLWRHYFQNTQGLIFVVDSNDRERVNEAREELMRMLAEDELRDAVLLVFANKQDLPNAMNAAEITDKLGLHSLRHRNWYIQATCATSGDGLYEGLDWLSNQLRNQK
UniProt P50851: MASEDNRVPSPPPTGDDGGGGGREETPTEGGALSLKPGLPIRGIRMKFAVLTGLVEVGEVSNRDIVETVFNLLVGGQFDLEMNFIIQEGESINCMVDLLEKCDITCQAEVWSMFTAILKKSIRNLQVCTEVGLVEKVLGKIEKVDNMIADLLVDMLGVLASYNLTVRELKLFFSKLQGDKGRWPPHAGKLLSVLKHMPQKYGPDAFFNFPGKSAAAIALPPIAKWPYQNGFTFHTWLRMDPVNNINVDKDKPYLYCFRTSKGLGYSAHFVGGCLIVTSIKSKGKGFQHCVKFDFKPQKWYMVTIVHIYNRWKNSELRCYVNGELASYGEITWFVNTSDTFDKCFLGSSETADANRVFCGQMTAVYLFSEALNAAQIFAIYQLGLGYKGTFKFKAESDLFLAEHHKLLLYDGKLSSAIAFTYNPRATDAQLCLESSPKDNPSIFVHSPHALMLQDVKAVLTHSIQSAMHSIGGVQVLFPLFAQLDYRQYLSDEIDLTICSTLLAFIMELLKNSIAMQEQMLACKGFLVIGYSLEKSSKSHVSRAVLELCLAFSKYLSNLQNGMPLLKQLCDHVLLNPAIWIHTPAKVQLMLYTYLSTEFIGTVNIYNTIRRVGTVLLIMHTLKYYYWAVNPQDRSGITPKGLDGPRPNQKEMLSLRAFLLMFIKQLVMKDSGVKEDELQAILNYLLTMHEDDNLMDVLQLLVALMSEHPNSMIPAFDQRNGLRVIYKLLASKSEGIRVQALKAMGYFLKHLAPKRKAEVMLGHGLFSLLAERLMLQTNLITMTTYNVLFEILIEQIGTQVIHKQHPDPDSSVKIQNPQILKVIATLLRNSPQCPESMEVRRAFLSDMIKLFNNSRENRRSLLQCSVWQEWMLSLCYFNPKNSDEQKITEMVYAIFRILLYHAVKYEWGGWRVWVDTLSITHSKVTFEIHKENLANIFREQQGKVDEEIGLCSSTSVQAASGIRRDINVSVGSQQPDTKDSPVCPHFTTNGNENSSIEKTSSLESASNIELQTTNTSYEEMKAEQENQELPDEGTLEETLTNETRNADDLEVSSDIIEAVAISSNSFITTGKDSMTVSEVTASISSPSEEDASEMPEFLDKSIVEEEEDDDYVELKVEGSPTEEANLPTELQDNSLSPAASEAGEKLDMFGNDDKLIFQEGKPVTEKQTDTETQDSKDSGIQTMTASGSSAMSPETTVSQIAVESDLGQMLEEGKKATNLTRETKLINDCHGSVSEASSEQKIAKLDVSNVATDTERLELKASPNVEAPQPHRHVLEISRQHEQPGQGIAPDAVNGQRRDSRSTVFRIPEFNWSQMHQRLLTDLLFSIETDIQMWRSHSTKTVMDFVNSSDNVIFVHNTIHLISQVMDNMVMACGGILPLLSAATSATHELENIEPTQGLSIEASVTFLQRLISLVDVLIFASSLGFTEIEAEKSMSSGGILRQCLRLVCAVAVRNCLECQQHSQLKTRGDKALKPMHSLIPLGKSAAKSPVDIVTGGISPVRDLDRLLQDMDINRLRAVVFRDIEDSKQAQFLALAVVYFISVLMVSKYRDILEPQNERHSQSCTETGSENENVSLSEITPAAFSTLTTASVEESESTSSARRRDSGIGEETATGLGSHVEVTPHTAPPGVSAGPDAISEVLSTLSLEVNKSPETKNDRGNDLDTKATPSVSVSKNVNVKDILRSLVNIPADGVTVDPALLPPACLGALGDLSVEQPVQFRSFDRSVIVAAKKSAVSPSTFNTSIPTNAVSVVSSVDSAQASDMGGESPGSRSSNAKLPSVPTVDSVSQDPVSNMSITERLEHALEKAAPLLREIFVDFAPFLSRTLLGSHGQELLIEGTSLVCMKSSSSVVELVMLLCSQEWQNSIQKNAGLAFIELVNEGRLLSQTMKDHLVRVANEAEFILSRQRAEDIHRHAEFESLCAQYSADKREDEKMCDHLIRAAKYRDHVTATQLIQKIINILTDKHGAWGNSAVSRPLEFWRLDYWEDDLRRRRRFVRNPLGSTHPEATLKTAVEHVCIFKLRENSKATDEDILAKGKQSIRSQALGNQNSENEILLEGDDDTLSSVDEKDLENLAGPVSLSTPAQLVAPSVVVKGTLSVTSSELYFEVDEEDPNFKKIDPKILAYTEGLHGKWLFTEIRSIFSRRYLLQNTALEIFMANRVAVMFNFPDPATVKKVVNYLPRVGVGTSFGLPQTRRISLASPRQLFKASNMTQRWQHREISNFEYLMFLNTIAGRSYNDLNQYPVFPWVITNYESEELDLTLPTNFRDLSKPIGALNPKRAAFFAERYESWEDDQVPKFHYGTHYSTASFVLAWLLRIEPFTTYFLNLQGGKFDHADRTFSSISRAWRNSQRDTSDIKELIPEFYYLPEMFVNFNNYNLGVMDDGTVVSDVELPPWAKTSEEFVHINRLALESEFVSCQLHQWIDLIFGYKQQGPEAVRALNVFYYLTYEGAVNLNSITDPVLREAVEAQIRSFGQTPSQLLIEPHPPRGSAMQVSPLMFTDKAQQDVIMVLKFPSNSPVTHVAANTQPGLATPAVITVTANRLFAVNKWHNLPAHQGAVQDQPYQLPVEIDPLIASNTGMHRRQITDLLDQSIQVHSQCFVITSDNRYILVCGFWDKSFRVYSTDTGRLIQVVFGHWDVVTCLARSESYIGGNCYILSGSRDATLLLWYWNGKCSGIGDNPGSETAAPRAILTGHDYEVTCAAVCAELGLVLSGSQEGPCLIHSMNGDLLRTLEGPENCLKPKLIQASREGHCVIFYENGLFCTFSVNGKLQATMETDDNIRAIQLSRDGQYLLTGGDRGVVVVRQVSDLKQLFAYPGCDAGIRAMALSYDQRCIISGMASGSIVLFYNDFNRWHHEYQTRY

Tests used:
Experiment in all cases: co-IP; Arf1-EGFP constructs captured from transfected HEK293A lysates on GFP-trap magnetic beads, endogenous LRBA detected by immunoblot; 20 mM Tris HCl pH 7.5, 150 mM NaCl, 5 mM MgCl2, 1 mM CaCl2, CHAPS; 4°C, 2 h; 100 nM GTP (Arf1-EGFP, I46S I49S), 100 nM GTPgammaS (Q71L), 100 nM GDPbetaS (T31N)
[1] = target: Arf1^T31N-EGFP (dominant-negative) (UniProt P84077)
[2] = target: Arf1^Q71L-EGFP (constitutively active) (UniProt P84077)
Arf1^(I46S, I49S)-EGFP = Arf1^(I46S, I49S)-EGFP (UniProt P84077)
Arf1-EGFP = Arf1-EGFP (UniProt P84077)

Measured: binding

lipopolysaccharide responsive beige-like anchor protein (LRBA) (from UniProt P50851 1-2863)
binds: all assays above
